The values that follow come from US20240118269.

By UniProt entry, the sequences of proteins in these tests, tags left out. Residues count along the entry.
UniProt P16860, 103-134: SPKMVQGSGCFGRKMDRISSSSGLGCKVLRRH

Negatives hold for the conditions tested.

For the series, the target named is B-type natriuretic peptide (BNP) (Homo sapiens) (UniProt P16860). As to the kind of experiment: binding assay. The conditions noted are these: 3' TEG-cholesterol on S11 and S12, -400 mV, purified recombinant protein, protein details: recombinant human BNP, Abcam ab87200, folded or branched DNA.

Take “GGCGATTCGTGATCTCTGCTCTCGGTTTCGCGTTCGTTCGTCCACGTTCTTTAATAGTGGACTCTTGTTCCAAACTGGAACAAAA / AAAGGCTATTCTTTTGATTTATAAGGGATTTTGCCGATTTCGGAAAAA / AAAACAGGATTTTCGCCTGCTGGGGCAAACCAGCGTGGACCGCTTAAA / GGCGATTCGTGATCTCTGCTCTCGGTTTCGCGTTCGTTCGCAACTCTCTCAGGGCCAGGCGGTGAAGGGCAATCAGCTGTTGAAA / AAATCTCACTGGTGAAAAGAAAAACCACCCTGGCGCCCAATACGCAAA / AAATCCCCGCGCGTTGGCCGATTCATTAATGCAGCTGGCACGACAAAA / AGAGTTGGCGTATTGCGGGGA / TGTCGTGACGTGGATTCCGAAATCGGCAGGCGAAATGATTGCCCTTCAC / TCCACTATTAAAGACCAGCTGTTTCACCAGTGAGACAACAGCATCCTGT / AAGCGGTAATAGCCTGTTCCA / GAATCGGACAAGAGTTATAAATCAAAAGCCACGCTCCCTGAG / CGCCTGGGGTTTGCCCCAGCAAAATCCC / GTTTGGACCAACGCGGGCGCCAGGGTGGTTTTTCTCATTAAT”: the binding result (H+ current through nanopores in supported lipid bilayer falls from -90±3 to -51±1 nA with 5x BNP (30 nM nanopore), PBS pH 7.5) is listed as “binds”. “AAATCCACGTTCTTTAATAGTGGACTCTTGTTCCAAACTGGAACAAAA / AAAGGCTATTCTTTTGATTTATAAGGGATTTTGCCGATTTCGGAAAAA / AAAACAGGATTTTCGCCTGCTGGGGCAAACCAGCGTGGACCGCTTAAA / AAACAACTCTCTCAGGGCCAGGCGGTGAAGGGCAATCAGCTGTTGAAA / AAATCTCACTGGTGAAAAGAAAAACCACCCTGGCGCCCAATACGCAAA / AAATCCCCGCGCGTTGGCCGATTCATTAATGCAGCTGGCACGACAAAA / AGAGTTGGCGTATTGCGGGGA / TGTCGTGACGTGGATTCCGAAATCGGCAGGCGAAATGATTGCCCTTCAC / TCCACTATTAAAGACCAGCTGTTTCACCAGTGAGACAACAGCATCCTGT / AAGCGGTAATAGCCTGTTCCA / GAATCGGACAAGAGTTATAAATCAAAAGCCACGCTCCCTGAG / CGCCTGGGGTTTGCCCCAGCAAAATCCC / GTTTGGACCAACGCGGGCGCCAGGGTGGTTTTTCTCATTAAT [6HB-2C DNA nanopore (no aptamer)]”: the binding result (no appreciable H+ current change (-96±9 nA) with same BNP concentration) is recorded as “no binding”.
